Consider 29 targets from the supplement of paper PMC12819154, “High-throughput peptide-centric local stability assay extends protein–ligand identification to membrane proteins, tissues and bacteria” (Nature Structural & Molecular Biology, 2025).

By UniProt entry, the sequences of proteins in these tests, tags left out. Where a name states a change or a piece, a line headed by the entry shows the natural chain unless it says otherwise.
UniProt P29350: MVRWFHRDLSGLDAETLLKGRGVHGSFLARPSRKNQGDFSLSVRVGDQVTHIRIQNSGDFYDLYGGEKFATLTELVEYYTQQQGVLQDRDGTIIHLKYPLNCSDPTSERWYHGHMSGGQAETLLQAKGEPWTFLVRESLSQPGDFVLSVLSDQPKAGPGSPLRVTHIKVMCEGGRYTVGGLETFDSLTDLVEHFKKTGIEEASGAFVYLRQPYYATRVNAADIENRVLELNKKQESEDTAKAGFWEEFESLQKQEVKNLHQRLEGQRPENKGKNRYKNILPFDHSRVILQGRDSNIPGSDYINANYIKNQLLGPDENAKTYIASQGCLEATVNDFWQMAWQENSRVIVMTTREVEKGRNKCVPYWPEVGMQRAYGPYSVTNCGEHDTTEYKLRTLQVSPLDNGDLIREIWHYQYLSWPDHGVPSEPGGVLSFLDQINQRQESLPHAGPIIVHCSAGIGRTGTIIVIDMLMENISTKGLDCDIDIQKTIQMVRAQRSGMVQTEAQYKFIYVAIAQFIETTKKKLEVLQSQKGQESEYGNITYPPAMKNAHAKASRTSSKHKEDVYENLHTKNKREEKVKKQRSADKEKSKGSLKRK
UniProt P41226: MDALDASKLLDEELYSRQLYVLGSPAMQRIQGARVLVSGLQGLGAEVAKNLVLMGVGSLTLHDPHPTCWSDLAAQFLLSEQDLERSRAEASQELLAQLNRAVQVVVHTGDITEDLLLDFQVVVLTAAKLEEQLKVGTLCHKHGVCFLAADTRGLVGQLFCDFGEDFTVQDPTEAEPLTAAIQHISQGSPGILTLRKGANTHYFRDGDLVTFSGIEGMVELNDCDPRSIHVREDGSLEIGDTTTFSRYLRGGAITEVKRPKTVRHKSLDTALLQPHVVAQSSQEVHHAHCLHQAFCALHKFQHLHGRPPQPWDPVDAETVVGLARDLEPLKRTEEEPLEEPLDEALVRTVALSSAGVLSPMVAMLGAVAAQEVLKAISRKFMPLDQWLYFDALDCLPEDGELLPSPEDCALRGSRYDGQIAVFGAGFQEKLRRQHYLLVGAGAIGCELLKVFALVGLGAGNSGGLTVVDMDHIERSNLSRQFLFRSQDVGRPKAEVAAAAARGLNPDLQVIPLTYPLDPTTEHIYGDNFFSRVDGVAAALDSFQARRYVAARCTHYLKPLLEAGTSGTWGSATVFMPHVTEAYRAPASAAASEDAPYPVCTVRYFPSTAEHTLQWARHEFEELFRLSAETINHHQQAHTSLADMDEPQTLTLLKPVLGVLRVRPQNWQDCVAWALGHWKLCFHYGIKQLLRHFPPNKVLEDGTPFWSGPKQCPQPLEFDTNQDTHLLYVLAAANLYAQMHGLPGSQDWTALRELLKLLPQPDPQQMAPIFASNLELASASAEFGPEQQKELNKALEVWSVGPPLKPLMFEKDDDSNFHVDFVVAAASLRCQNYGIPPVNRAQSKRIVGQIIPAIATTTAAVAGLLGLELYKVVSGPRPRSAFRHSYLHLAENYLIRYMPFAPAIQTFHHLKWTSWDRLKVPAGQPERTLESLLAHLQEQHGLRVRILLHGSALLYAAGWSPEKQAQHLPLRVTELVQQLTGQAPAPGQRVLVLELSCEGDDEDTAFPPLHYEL
UniProt P35659: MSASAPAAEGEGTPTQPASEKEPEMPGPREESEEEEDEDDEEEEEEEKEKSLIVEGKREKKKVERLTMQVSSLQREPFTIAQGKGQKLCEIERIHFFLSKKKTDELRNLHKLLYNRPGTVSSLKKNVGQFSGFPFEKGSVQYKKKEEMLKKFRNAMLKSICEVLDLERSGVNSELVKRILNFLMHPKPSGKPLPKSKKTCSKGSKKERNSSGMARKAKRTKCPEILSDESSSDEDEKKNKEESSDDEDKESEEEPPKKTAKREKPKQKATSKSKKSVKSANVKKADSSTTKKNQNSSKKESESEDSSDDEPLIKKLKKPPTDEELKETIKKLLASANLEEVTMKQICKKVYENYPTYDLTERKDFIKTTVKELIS
UniProt P35713: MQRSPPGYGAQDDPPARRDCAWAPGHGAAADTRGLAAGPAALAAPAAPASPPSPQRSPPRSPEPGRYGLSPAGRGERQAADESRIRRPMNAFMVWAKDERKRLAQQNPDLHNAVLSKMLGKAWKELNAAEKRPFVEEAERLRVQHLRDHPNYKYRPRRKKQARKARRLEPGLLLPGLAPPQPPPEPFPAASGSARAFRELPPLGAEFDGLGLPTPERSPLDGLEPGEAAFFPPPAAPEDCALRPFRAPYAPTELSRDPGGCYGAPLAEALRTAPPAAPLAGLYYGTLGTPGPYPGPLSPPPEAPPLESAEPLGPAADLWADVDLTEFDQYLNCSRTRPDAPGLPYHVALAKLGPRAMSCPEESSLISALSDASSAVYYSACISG
UniProt P38606, whole entry: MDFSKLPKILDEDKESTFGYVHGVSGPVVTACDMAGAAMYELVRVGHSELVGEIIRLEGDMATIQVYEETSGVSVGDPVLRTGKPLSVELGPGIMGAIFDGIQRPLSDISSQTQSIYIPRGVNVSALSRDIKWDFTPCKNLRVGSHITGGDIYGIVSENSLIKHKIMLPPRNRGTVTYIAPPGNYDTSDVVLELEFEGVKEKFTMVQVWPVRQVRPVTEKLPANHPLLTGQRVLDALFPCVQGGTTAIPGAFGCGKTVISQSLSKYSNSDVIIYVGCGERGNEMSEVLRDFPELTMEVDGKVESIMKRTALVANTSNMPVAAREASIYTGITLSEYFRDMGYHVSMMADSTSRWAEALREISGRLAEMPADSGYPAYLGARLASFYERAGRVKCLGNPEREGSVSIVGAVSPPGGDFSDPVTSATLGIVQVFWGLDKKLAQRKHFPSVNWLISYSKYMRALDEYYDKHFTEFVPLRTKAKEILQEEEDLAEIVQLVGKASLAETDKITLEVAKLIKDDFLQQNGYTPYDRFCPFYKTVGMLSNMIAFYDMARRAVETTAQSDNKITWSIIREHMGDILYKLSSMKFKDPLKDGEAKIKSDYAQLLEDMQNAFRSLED
UniProt P33552, whole entry: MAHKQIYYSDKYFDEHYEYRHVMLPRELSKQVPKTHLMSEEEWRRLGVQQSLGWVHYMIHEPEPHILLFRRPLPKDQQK
UniProt P35520: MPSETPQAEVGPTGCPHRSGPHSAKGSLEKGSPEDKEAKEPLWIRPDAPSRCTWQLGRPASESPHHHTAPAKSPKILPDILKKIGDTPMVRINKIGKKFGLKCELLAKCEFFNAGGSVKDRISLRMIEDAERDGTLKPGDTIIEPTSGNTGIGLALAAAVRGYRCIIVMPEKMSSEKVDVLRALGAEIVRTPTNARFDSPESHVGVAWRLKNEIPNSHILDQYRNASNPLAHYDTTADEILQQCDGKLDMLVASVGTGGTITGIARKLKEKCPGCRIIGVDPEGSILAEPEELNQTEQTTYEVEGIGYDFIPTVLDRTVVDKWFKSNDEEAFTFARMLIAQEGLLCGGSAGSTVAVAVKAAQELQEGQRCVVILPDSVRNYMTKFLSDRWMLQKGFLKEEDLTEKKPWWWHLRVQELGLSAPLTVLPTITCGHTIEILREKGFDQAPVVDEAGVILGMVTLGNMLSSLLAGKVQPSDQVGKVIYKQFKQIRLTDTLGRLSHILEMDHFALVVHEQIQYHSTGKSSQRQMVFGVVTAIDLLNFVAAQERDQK
UniProt P30837: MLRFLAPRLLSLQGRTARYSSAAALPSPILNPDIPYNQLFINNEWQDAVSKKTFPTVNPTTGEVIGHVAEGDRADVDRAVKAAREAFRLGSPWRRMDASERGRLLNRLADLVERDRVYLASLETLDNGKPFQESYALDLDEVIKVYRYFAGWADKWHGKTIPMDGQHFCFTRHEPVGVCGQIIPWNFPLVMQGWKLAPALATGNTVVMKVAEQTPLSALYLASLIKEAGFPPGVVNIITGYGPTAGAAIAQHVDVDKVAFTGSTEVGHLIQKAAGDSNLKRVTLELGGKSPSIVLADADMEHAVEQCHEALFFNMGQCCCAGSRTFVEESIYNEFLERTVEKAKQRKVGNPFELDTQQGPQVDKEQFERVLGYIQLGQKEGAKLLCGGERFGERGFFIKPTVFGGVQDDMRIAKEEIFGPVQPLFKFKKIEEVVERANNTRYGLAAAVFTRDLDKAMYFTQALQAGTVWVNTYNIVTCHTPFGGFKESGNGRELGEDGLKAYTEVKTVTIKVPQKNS
UniProt P37275: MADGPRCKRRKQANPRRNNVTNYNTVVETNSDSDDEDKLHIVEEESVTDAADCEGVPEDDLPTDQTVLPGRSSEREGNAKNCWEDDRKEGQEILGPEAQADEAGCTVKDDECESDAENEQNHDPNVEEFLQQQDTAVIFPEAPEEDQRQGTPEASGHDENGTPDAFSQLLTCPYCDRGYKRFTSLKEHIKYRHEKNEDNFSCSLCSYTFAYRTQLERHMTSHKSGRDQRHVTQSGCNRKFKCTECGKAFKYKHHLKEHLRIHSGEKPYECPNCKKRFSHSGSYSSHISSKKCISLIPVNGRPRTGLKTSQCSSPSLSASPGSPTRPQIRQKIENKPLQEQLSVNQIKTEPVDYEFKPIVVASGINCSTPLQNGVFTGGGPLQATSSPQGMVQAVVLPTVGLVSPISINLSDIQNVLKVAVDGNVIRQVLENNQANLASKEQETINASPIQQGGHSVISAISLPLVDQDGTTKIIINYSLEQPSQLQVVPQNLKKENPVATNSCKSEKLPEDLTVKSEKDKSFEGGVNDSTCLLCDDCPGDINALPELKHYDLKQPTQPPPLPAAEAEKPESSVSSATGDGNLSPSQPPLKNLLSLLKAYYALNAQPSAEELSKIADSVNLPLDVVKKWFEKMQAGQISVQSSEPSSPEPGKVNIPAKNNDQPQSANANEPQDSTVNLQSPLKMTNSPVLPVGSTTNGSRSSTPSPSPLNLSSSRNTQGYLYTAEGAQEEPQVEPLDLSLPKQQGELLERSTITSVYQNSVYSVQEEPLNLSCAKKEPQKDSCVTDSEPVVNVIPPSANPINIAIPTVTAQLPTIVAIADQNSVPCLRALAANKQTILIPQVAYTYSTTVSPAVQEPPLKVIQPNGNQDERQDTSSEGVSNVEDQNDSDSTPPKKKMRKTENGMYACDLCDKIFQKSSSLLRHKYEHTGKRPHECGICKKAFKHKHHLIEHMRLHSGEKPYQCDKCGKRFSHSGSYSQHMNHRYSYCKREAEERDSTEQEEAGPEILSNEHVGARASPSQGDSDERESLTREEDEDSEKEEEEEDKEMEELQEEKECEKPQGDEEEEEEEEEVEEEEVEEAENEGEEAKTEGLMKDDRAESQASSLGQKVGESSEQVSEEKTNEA
UniProt P30305: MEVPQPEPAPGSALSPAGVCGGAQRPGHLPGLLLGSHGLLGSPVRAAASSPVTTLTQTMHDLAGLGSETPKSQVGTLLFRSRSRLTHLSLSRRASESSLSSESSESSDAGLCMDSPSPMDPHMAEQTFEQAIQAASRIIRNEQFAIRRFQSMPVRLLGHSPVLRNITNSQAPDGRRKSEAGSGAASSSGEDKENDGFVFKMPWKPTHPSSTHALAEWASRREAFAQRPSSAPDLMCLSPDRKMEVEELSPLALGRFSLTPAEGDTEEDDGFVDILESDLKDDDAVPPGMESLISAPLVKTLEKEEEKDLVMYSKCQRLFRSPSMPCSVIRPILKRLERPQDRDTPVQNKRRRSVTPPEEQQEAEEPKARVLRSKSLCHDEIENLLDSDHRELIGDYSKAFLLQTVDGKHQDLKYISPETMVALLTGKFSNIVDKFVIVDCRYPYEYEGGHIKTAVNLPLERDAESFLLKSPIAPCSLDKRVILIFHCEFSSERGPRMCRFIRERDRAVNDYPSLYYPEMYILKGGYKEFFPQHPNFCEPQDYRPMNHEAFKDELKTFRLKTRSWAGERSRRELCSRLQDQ
UniProt P28331, whole entry: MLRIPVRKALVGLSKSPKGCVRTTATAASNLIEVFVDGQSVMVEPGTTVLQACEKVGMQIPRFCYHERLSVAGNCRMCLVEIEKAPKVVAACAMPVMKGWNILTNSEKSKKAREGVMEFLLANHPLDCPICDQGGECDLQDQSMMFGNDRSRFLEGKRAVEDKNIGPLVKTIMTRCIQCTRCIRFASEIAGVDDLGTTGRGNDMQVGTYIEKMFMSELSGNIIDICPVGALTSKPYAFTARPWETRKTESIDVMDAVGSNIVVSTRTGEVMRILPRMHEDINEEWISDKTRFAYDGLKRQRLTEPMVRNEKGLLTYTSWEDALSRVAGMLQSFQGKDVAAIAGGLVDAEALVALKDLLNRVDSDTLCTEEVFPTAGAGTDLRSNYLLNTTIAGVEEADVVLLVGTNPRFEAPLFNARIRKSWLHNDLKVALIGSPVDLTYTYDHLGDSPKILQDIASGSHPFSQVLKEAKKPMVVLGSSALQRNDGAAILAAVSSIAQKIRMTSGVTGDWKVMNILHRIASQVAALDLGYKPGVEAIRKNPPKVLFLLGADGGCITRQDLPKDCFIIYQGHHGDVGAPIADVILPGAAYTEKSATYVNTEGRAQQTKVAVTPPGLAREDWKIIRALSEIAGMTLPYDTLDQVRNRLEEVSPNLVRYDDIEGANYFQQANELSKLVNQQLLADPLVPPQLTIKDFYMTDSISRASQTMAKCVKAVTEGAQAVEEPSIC

The list shows a part of the results. Most values lie at the level of the controls, where differences are scatter.

Compound in the experiment: CN[C@@H]1C[C@H]2O[C@@](C)([C@@H]1OC)n1c3ccccc3c3c4c(c5c6ccccc6n2c5c31)C(=O)NC4 [staurosporine]
In words: log2 fold change of tryptic peptide abundance, ligand vs vehicle (limited proteolysis) (log2 ratio); higher = more trypsin-susceptible (destabilized). The following applies: ligand concentration: 20 uM; sample: K562 cleared lysate; digestion: 4 min, 22 C (HT-PELSA RT4min, Orbitrap Astral).
On to “HADHA (peptide sequence: THINYGVKGDVAVVR, peptide start residue: 39) (UniProt P40939)”, for which the log2 fold change is -0.912.

Turning to “HNRNPH1 (peptide sequence: GLPWSCSADEVQR, peptide start residue: 17) (UniProt P31943)”, the log2 fold change was -0.38.

Turning to “STAT5A (peptide sequence: GAESVTEEK, peptide start residue: 431) (UniProt P42229)”, the log2 fold change turned out to be 0.377.

Turning to “HNRNPH3 (peptide sequence: LLGQRPGPYDRPIGGR, peptide start residue: 106) (UniProt P31942)”, the log2 fold change is -0.459.

Take “ARL2 (peptide sequence: GLLTILKK, peptide start residue: 2) (UniProt P36404)”: the log2 fold change was found to be 0.193.

For the target “SLC19A1 (peptide sequence: AAQALSVQDK, peptide start residue: 480) (UniProt P41440)”, the log2 fold change is -0.206.

As to “PTPN6 (peptide sequence: GLDCDIDIQK, peptide start residue: 477) (UniProt P29350)”, the log2 fold change is -0.446.

As for “EEF1D (peptide sequence: YDDAERR, peptide start residue: 18) (UniProt P29692)”, the log2 fold change is -0.148.

With “ERCC5 (peptide sequence: IRPNPHDTK, peptide start residue: 905) (UniProt P28715)”, the log2 fold change is 0.822.

Consider “UBA7 (peptide sequence: LLDEELYSR, peptide start residue: 9) (UniProt P41226)”, for which the log2 fold change is -0.0267.

Turning to “DEK (peptide sequence: LLASANLEEVTMK, peptide start residue: 332) (UniProt P35659)”, the log2 fold change is -0.622.

Take “UniProt P35713 (peptide sequence: RPMNAFMVWAK, peptide start residue: 623)”: the log2 fold change was -0.15.

As to “ETV6 (peptide sequence: SPLDNMIR, peptide start residue: 203) (UniProt P41212)”, the log2 fold change was -0.135.

“ATP6V1A (peptide sequence: ITWSIIR, peptide start residue: 565) (UniProt P38606)”: the log2 fold change is 0.21.

For “CKS2 (peptide sequence: THLMSEEEWRR, peptide start residue: 35) (UniProt P33552)”, the log2 fold change was -0.37.

For “SLC7A1 (peptide sequence: VLLNIGQQMLRR, peptide start residue: 5) (UniProt P30825)”, the log2 fold change was -0.359.

For “CBS (peptide sequence: GFLKEEDLTEK, peptide start residue: 395) (UniProt P35520)”, the log2 fold change amounted to 0.176.

“NF2 (peptide sequence: LSMEIEKEKVEYMEK, peptide start residue: 517) (UniProt P35240)”: the log2 fold change was found to be 0.471.

“GMPR (peptide sequence: VTQQHNTVFS, peptide start residue: 336) (UniProt P36959)”: the log2 fold change is -0.287.

On to “PPP2R1A (peptide sequence: NEDVQLR, peptide start residue: 34) (UniProt P30153)”, for which the log2 fold change was -0.0962.

For “ALDH1B1 (peptide sequence: KIEEVVER, peptide start residue: 429) (UniProt P30837)”, the log2 fold change turned out to be 0.236.

On to “ZEB1 (peptide sequence: VGESSEQVSEEK, peptide start residue: 1109) (UniProt P37275)”, for which the log2 fold change is -0.643.

Consider “DCTD (peptide sequence: IVIDFDSINSRPSQK, peptide start residue: 162) (UniProt P32321)”, for which the log2 fold change was -0.0773.

Consider “CDC25B (peptide sequence: TAVNLPLER, peptide start residue: 453) (UniProt P30305)”, for which the log2 fold change came to 0.369.

Turning to “NDUFS1 (peptide sequence: LEEVSPNLVR, peptide start residue: 646) (UniProt P28331)”, the log2 fold change is -0.493.

Turning to “CTNNA1 (peptide sequence: APEKKPLVK, peptide start residue: 863) (UniProt P35221)”, the log2 fold change is 1.29.

On to “LRPAP1 (peptide sequence: HTELKEK, peptide start residue: 221) (UniProt P30533)”, for which the log2 fold change is -0.779.

As to “STX2 (peptide sequence: NVMNATDYVEHAKEETKK, peptide start residue: 235) (UniProt P32856)”, the log2 fold change was 0.299.

As for “LAP3 (peptide sequence: QVVDCQLADVNNIGKYR, peptide start residue: 441) (UniProt P28838)”, the log2 fold change was -0.363.
